# Reference: US20250325468A1, “PEPTIDE INHIBITING FORMATION OF SNARE COMPLEX AND USE THEREOF” (MEDYTOX INC., priority 2020, published 2025)
# Test system: MITF gene
# Assay: MITF gene activity by real-time PCR
# Assay type: cell-based, mice
# Settings: Table 2; three replicates; C2-P4 10 μM, α-MSH 50 nM, 48 hours
# Experimental: B16-F10 cells purchased from the Korean Cell Line Bank were inoculated into 3 mL of a DMEM medium containing 10% FBS at a concentration of 1×10^5 cells/well in a 6-well plate and cultured in an incubator of 37° C. and 5% CO2 for 24 hours to form a cell monolayer. The medium in a negative control was replaced with a DMEM medium, and the medium in peptide-treated experimental groups and α-MSH experimental groups was replaced with a medium containing 10 μM of each of the peptides and 50 nM of α-MSH, respectively, and then the cells were cultured for 48 hours. Each of the experimental groups was washed twice with PBS, the cells were obtained with trypsin-EDTA and centrifuged at 1500 rpm for 5 minutes to separate the cells. RNA was extracted from the separated cells using Trizol, and each 1,000 ng of cDNA was synthesized using reverse transcriptase. Using 100 ng of each of the synthesized cDNAs, the expression levels of GAPDH and […] were confirmed using real-time PCR. The primers used for the real-time PCR were SEQ ID NOs: 9 and 10. Alternatively, the polynucleotide sets of SEQ ID NOs: 11 and 12 were used.
substance,measurement,value
α-MSH,GAPDH (real-time PCR value),23.41 and 23.36 and 23.74

# Where “and” joins values, the source holds several entries; their conditions need not be identical. Identical values can stand only once.
